Percent effect of library compounds

Chains of the proteins cited; added tags and fusions are not shown. Residues count along the entry.
UniProt P9WFT3, whole entry: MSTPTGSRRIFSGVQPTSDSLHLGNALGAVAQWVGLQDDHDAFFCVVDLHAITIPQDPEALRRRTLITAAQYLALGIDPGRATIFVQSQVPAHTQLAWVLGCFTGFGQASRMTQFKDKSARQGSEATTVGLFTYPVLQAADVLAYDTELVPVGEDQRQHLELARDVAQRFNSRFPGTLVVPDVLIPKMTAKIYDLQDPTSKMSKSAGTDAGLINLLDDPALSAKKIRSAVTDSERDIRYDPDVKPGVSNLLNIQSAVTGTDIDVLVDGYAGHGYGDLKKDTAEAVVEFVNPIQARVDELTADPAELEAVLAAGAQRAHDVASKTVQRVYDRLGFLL
UniProt I6X8D2, whole entry: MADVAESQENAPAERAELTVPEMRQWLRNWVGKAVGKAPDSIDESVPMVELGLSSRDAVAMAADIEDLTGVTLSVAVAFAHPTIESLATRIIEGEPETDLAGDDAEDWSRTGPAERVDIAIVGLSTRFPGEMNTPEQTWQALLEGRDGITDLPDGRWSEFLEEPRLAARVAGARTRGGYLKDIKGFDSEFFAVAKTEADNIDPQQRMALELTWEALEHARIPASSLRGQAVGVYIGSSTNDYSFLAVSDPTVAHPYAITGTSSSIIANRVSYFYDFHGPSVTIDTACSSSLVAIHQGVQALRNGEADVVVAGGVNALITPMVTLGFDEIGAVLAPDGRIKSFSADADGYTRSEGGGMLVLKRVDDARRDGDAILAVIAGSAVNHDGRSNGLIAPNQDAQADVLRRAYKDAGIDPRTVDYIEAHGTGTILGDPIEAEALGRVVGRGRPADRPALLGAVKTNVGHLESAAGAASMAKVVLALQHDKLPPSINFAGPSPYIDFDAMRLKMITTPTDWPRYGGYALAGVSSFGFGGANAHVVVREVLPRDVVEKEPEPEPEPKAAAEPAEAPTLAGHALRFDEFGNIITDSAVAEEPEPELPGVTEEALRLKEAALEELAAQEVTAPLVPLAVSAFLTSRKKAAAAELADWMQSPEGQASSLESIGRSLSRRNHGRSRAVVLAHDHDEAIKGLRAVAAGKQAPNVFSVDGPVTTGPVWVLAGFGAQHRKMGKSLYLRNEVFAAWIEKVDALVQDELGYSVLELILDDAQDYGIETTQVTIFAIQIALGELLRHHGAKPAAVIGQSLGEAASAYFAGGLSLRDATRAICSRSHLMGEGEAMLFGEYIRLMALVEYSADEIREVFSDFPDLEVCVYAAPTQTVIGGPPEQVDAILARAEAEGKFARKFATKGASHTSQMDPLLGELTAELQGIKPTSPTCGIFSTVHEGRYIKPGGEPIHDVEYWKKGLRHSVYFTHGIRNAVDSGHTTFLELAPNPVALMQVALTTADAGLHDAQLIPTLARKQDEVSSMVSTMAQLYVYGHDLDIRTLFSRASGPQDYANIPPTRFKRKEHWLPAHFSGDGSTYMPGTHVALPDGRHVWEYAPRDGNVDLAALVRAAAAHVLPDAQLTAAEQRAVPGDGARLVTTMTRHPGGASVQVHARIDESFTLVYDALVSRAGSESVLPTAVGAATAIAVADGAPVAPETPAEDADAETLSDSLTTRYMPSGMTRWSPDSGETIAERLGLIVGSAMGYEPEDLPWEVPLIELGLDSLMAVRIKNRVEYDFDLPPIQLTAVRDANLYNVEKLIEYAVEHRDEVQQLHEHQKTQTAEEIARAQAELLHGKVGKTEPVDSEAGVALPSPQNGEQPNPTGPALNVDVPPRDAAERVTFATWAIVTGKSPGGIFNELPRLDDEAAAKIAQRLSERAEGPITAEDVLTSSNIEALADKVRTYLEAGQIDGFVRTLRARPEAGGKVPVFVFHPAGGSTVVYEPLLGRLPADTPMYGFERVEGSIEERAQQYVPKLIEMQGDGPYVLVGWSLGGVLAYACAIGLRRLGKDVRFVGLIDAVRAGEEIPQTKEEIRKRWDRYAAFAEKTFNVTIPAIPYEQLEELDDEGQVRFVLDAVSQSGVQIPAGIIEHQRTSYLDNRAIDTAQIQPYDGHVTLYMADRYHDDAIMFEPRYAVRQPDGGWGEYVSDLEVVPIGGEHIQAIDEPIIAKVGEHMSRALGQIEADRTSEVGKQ
UniProt Q4DA54, 1-478: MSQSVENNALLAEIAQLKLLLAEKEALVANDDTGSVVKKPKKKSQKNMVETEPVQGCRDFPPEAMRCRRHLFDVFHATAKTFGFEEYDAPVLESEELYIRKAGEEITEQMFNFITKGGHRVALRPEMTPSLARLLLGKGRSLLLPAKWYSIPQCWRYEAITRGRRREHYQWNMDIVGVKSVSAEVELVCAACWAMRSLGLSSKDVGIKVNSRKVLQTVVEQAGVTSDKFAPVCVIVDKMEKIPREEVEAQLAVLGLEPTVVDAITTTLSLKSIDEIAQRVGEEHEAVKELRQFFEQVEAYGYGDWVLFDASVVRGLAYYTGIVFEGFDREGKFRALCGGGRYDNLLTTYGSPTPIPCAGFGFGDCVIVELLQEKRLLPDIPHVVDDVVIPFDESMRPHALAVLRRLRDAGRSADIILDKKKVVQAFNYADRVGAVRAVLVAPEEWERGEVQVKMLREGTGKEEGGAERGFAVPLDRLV

The values are deposited in ChEMBL (CHEMBL3988442, “University of Dundee, Small-Polar-MMV Screening Library” (2021)).

MtTrpRS: 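Tryptophan-tRNA ligase, Mycobacterium tuberculosis (UniProt P9WFT3). Enzyme assay of tryptophanyl-tRNA synthetase; the read-out is not stated. Compounds at 10 µM. Direction is not recorded; retested compounds ran higher, which suggests that high means inhibition. Size under these conditions: about 65,000 compounds, about 64 of them at 50% or above in at least one test.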
Leishmania in macrophages: 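Cell assay of Leishmania donovani living inside macrophages; the read-out is not stated. Compounds at 30 µM. Direction is inferred from retests: higher values go with stronger inhibition. Size under these conditions: about 69,000 compounds, about 1,000 of them at 50% or above in at least one test.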
Pks13 thioesterase: 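Polyketide synthase Pks13, Mycobacterium tuberculosis (UniProt I6X8D2). Enzyme assay of the thioesterase domain of polyketide synthase 13; the read-out is not stated. Tested at 30 µM. The record gives no direction; the compounds picked for IC50 retests had high values, so higher reads as stronger inhibition. About 67,000 compounds were tested under these conditions; 0.46% (about 300) showed 50% or more at least once.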
TcHisRS: 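Histidine-tRNA ligase, Trypanosoma cruzi CL Brener (UniProt Q4DA54). Enzyme assay of histidyl-tRNA synthetase; the read-out is not stated. Concentration: 30 µM. Higher reads as stronger inhibition (inferred: compounds with an IC50 in retests scored well above the rest). Of about 69,000 compounds tested this way, about 31 (0.045%) reached 50% or more in at least one test.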

Each number is a percent effect as filed. The controls that fix the scale are not given in the record; negative values are as filed. This is an unselected part of the compounds tested. Two or more numbers in one place are separate tests of the same structure; such repeats can differ widely.

{"structure": "CN(C)C(=O)c1cnc2n1CCN(Cc1ccncc1)C2", "MtTrpRS": 5.942, "Leishmania in macrophages": -7.57, "Pks13 thioesterase": -33.19, "TcHisRS": 5.882}
{"structure": "CC(c1c(F)cccc1F)N1CCN(Cc2nccn2C)CC1", "stereo": "stereo not given", "MtTrpRS": 4.413, "Leishmania in macrophages": 28.44, "Pks13 thioesterase": -0.1411, "TcHisRS": 5.187}
{"structure": "CCn1ncc2c1NC(=O)C(C#N)C21CCCC1", "stereo": "stereo not given", "MtTrpRS": -7.143, "Leishmania in macrophages": 16.93, "Pks13 thioesterase": -4.76, "TcHisRS": 4.202}
{"structure": "Cc1nc(CN2C(=O)C[C@@H]3[C@@H]2CCN3S(=O)(=O)C2CC2)cs1", "MtTrpRS": 0.6478, "Pks13 thioesterase": 2.649, "TcHisRS": 14.07}
{"structure": "COc1ccc(CNCC2CNc3cc(C)nn3C2)cn1", "stereo": "stereo not given", "MtTrpRS": -5.964, "Leishmania in macrophages": 15.42, "Pks13 thioesterase": -2.719, "TcHisRS": 5.917}
{"structure": "CCOc1ccc(S(=O)(=O)NC(=O)CCC2CCCO2)cc1", "stereo": "stereo not given", "MtTrpRS": -1.017, "Leishmania in macrophages": 22.06, "Pks13 thioesterase": -2.837, "TcHisRS": 3.008}
{"structure": "c1cnn(CC2CCCCN2Cc2noc(C3CC3)n2)c1", "stereo": "stereo not given", "MtTrpRS": -10.99, "Leishmania in macrophages": 14.31, "Pks13 thioesterase": -20.98, "TcHisRS": 4.142}
{"structure": "Cc1nc(O)ccc1C(=O)NCc1ncccc1F", "MtTrpRS": -0.3096, "Leishmania in macrophages": 8.587, "Pks13 thioesterase": -5.645, "TcHisRS": 7.182}
{"structure": "COCc1cnc2n1CCN(C1CCCC1)C2C", "stereo": "stereo not given", "MtTrpRS": 6.599, "Pks13 thioesterase": -16.7, "TcHisRS": 0.4975}
{"structure": "Cc1cccc(CN2CCC3(CCN(Cc4ccccn4)C3)C2=O)c1", "stereo": "stereo not given", "MtTrpRS": 1.298, "Pks13 thioesterase": -4.512, "TcHisRS": 2.256}
{"structure": "Cc1nnc(SCCCNc2cc(C3CC3)ncn2)s1", "MtTrpRS": -3.065, "Leishmania in macrophages": 31.22, "Pks13 thioesterase": -5.471, "TcHisRS": 4.348}
{"structure": "COCc1nnc(C(=O)N(C)Cc2ccc(OC)cc2)o1", "MtTrpRS": -4.728, "Leishmania in macrophages": 26.76, "Pks13 thioesterase": -25.52, "TcHisRS": 4.712}
{"structure": "CC(=O)NCc1ccc(C(=O)N2CCCC2c2cnn(C)c2)s1", "stereo": "stereo not given", "MtTrpRS": -8.267, "Leishmania in macrophages": 27.51, "Pks13 thioesterase": -14.58, "TcHisRS": 3.429}
{"structure": "CC(C)N1CCC(CNCc2c[nH]nc2C(C)(C)C)C1", "stereo": "stereo not given", "MtTrpRS": 0.8607, "Leishmania in macrophages": 13.07, "Pks13 thioesterase": -9.421, "TcHisRS": 1.504}
{"structure": "NC(=O)CN1CCC(NC(=O)Nc2nccs2)CC1", "MtTrpRS": -0.9651, "Leishmania in macrophages": -0.9986, "Pks13 thioesterase": -15.83, "TcHisRS": -8.397}
{"structure": "CN(Cc1cncnc1)[C@H]1CN(C(=O)c2ccco2)[C@@H]2CCCO[C@@H]21", "Pks13 thioesterase": -5.144, "TcHisRS": 1.058}
{"structure": "Cc1ccc(NC2CCN(C(=O)COc3cccc(F)c3)CC2)nn1", "MtTrpRS": 19.55, "Leishmania in macrophages": 1.683, "Pks13 thioesterase": -4.454, "TcHisRS": -3.725}
{"structure": "Cc1ccc(CN(C(=O)NCC2CCS(=O)(=O)C2)C2CC2)o1", "stereo": "stereo not given", "MtTrpRS": -4.379, "Leishmania in macrophages": 31.05, "Pks13 thioesterase": -3.347, "TcHisRS": 1.587}
{"structure": "Cc1cc(C)nc(N2CCC(c3cccc(CCC(=O)O)n3)CC2)n1", "MtTrpRS": -0.7542, "Leishmania in macrophages": -9.293, "Pks13 thioesterase": -9.271, "TcHisRS": 3.714}
{"structure": "[H][C@@]12CN(Cc3cccc(C(F)(F)F)c3)C[C@]1(C(=O)O)CNC2=O", "Leishmania in macrophages": -32.67}
{"structure": "CCOCC(=O)N1CSCC1C(=O)N(C)Cc1ccco1", "stereo": "stereo not given", "MtTrpRS": 3.771, "Leishmania in macrophages": 13.38, "Pks13 thioesterase": -17.57, "TcHisRS": 5.714}
{"structure": "CC(=O)N1CCCC2(C1)CN(c1nncs1)CCO2.O=C(O)C(F)(F)F", "stereo": "stereo not given", "Leishmania in macrophages": 42.05}
{"structure": "Cc1nn(C)c(N(C)C)c1CNCc1ccccc1CO", "MtTrpRS": -6.518, "Leishmania in macrophages": 33.24, "Pks13 thioesterase": -5.315, "TcHisRS": -0.5634}
{"structure": "CC(=O)c1cn(CC(=O)N[C@H](C(=O)O)C(C)C)c2ccccc12", "MtTrpRS": 4.51, "Leishmania in macrophages": 16.38, "Pks13 thioesterase": 1.762, "TcHisRS": 3.96}
{"structure": "O=C(Cn1c(=O)n(Cc2ccco2)c2ncccc21)NC1CC1", "Leishmania in macrophages": "13.04 and 8.489", "Pks13 thioesterase": -1.532, "TcHisRS": 3.297}
{"structure": "CC(c1ccncc1)N(CCN(C)C)C(=O)Nc1ccc(Cl)c(Cl)c1", "stereo": "stereo not given", "MtTrpRS": -4.158, "Leishmania in macrophages": "30.89 and 21.29", "Pks13 thioesterase": -1.465, "TcHisRS": 6.098}
{"structure": "O=C1N(Cc2ccc(F)c(F)c2)CCCC12CCN(C1CCCC1)C2", "stereo": "stereo not given", "MtTrpRS": 2.139, "Leishmania in macrophages": 10.65, "Pks13 thioesterase": -6.977, "TcHisRS": 13.11}
{"structure": "CCN1CCN(C(=O)c2cc(F)cc3nc(C)c(C)nc23)CC1", "MtTrpRS": -5.972, "Leishmania in macrophages": 7.268, "TcHisRS": 5.172}
{"structure": "Cn1cc(CN2CCC3(CCCN3Cc3cccnc3)CC2)cn1", "MtTrpRS": -1.952, "TcHisRS": 6.14}
{"structure": "CCn1ccnc1CN1CCN(Cc2cccnc2)CC1C", "stereo": "stereo not given", "MtTrpRS": -4.196, "Leishmania in macrophages": 23.36, "Pks13 thioesterase": -13, "TcHisRS": 8.52}
{"structure": "c1nc(N2CCCC2Cn2cncn2)c2sccc2n1", "stereo": "stereo not given", "MtTrpRS": 0.8708, "Leishmania in macrophages": 26.84, "Pks13 thioesterase": -11.31, "TcHisRS": 6.122}

Once more, the final 2:

structure,MtTrpRS,Leishmania in macrophages,Pks13 thioesterase,TcHisRS
CCn1ccnc1CN1CCN(Cc2cccnc2)CC1C (stereo not given),-4.196,23.36,-13,8.52
c1nc(N2CCCC2Cn2cncn2)c2sccc2n1 (stereo not given),0.8708,26.84,-11.31,6.122